Assay results taken from patent US20060287316A1, “METHOD FOR IMPROVING PHARMACOKINETICS OF PROTEASE INHIBITORS AND PROTEASE INHIBITOR PRECURSORS” (priority 2005, published 2006).
At least one read-out could not be matched to a standard name with certainty.

System: laboratory adapted HIV strain (NL4-3)
Settings: culture condition 10% FBS + 40% human serum
Description: Briefly, the antiviral activity of PL-100 was determined using MT4 cells infected with a laboratory adapted HIV strain (NL4-3). For comparison, seven approved protease inhibitors (PIs) were tested in parallel.
The effect of 40% human serum on the antiviral activity of PL-100 in MT4 cells infected with NL4-3 was therefore evaluated.

Question: For `COC(=O)N[C@H](C(=O)NCCCC[C@@H](CO)N(CC(C)C)S(=O)(=O)c1ccc(N)cc1)C(c1ccccc1)c1ccccc1` [PL-100, (1S,5S)-(1-{5-[(4-amino-benzenesulfonyl)-isobutyl-amino]-6-hydroxy-hexylcarbamoyl}-2,2-diphenyl-ethyl)-carbamic acid methyl ester], which EC50 is on record?
Answer: 0.106 µM
